Data source: PubChem BioAssay AID652272 (Drosophila RNAi Screening Center, 2013)
Aim: 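Genome-wide knock-down search for components of Hedgehog signalling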 (primary screen). Cells: Drosophila clone 8 (Cl8) cells. Knock-down reagent: long dsRNA against Drosophila genes. Detection: 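Plate reader light from a firefly reporter under a ptc promoter fragment that responds to Hedgehog, with Renilla light as transfection reference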. Direction: firefly Hh reporter signal: higher = more ptc reporter light; Renilla reference signal: higher = more Renilla control light. Hit rule: 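Hit when the z-score averaged over two replicates is under -2 or over +3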. Meaning of the calls: active = hit: reporter lowered or raised; inactive = not a hit.
The screen tested about 21,000 reagents; below is a random part of those that have a named target and a result. Over the whole deposit, 503 (2.4%) got an active call. 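Raw plate light values, not normalised; calls rest on replicate z-scores that were not deposited; hits include reporter decreases as well as increases.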 Entries without a mark were called inactive. Reagents against one gene are numbered here. Names joined by + are all predicted targets of the reagent. No sequences are given here. Not stated in the record: the amount of reagent, the time to read-out.

| Target gene | reagent no. | firefly Hh reporter signal, replicate 1 | firefly Hh reporter signal, replicate 2 | firefly Hh reporter signal, replicate 3 | Renilla reference signal, replicate 1 | Renilla reference signal, replicate 2 |
| --- | --- | --- | --- | --- | --- | --- |
| CG12546 + CG14452 | 1 | 89888 | 82400 | – | 3458 | 2493 |
| CG5687 (GeneID 38255) | 1 | 1.01e5 | 71666 | – | 5073 | 2928 |
| Dhfr (GeneID 42003) | 1 | 1.06e5 | 1.08e5 | – | 3954 | 2368 |
| cmpy (GeneID 40288) | 1 | 71213 | 91286 | – | 3024 | 2948 |
| Alg13 (GeneID 43443) | 1 | 2.32e5 | 1.84e5 | – | 7540 | 3930 |
| CG32212 + hpRNA:CR33940 | 1 | 3.38e5 | – | – | 6935 | – |
| Drl-2 (GeneID 36436) | 1 | 1.28e5 | 1.99e5 | – | 3632 | 8144 |
| Drl-2 (GeneID 36436) | 2 | 1.11e5 | 63688 | – | 2765 | 5000 |
| Drl-2 (GeneID 36436) | 3 | 1.11e5 | 68165 | – | 2701 | 5608 |
| CG32036 (GeneID 39105) | 1 | 81131 | 45449 | – | 3709 | 1684 |
| SpdS (GeneID 41167) | 1 | 79058 | 1.47e5 | – | 2898 | 3961 |
| CG13564 (GeneID 37855) | 1 | 82102 | 73617 | – | 1744 | 7249 |
| TTLL5 (GeneID 43015) | 1 | 95152 | 74040 | – | 3387 | 2331 |
| Spn75F (GeneID 317912) | 1 | 2.20e5 | – | – | 4501 | – |
| CG2258 (GeneID 31729) | 1 | 75152 | 79242 | – | 1648 | 1670 |
| RpL13A (GeneID 40687) | 1 | 32400 (active) | 44082 | – | 3467 | 3648 |
| CG13102 + Rcd-1r | 1 | 1.24e5 | 1.05e5 | – | 3236 | 7596 |
| RYa-R (GeneID 43253) | 1 | 87762 | 85281 | – | 2107 | 2594 |
| CG14882 (GeneID 41994) | 1 | 1.08e5 | 78089 | – | 4496 | 2925 |
| Mfap1 (GeneID 38256) | 1 | 55072 (active) | 45923 | – | 3691 | 2821 |
| Gprk2 (GeneID 49045) | 1 | 49668 | 27958 | – | 892 | 813 |
| CG14244 (GeneID 50080) | 1 | 67671 | 1.06e5 | – | 2642 | 3425 |
| Ugt36A1 + CG15418 | 1 | 1.84e5 | 78555 | – | 4536 | 7069 |
| sktl (GeneID 37356) | 1 | 82076 | 51785 | – | 2981 | 1994 |
| Arc42 (GeneID 42364) | 1 | 6.81e5 | 1.39e5 | – | 34563 | 4035 |
| Arc42 (GeneID 42364) | 2 | 8.73e5 | 2.38e5 | – | 43699 | 5991 |
| CG12935 (GeneID 36134) | 1 | 78881 | 56659 | – | 3733 | 2313 |
| CG44014 + CG44013 | 1 | 1.26e5 | 1.28e5 | – | 2737 | 4018 |
| CG14292 (GeneID 42264) | 1 | 5.59e5 | 1.01e5 | – | 24757 | 2860 |
| AP-1mu (GeneID 41150) | 1 | 1.12e5 | 73462 | – | 4352 | 2827 |
| CG33722 + CG18749 | 1 | 1.36e5 | – | – | 3081 | – |
| CG33722 + CG18749 | 2 | 83124 | 96669 | – | 3179 | 2837 |
| CG5177 (GeneID 34017) | 1 | 1.17e5 | 97782 | – | 4132 | 4233 |
| RpL24 (GeneID 34754) | 1 | 33162 (active) | 19957 | – | 1705 | 3121 |
| CG12963 (GeneID 36724) | 1 | 1.24e5 | 2.94e5 | – | 8992 | 11370 |
| CG12963 (GeneID 36724) | 2 | 82811 | 39252 | – | 1917 | 1681 |
| CG32023 (GeneID 317827) | 1 | 1.27e5 | 2.53e5 | – | 4376 | 12000 |
| IleRS (GeneID 45785) | 1 | 1.36e5 | 1.13e5 | – | 6022 | 4887 |
| CG32032 (GeneID 192535) | 1 | 98461 | 2.46e5 | – | 2779 | 8420 |
| btz (GeneID 43331) | 1 | 1.23e5 | 90656 | – | 2044 | 1805 |
| Sans (GeneID 36427) | 1 | 81395 | 70457 | – | 3576 | 949 |
| Prosbeta3 (GeneID 41079) | 1 | 49456 (active) | 49770 | – | 4800 | 4050 |
| Syx18 (GeneID 42933) | 1 | 1.02e5 | 97587 | – | 4467 | 4411 |
| AttB (GeneID 36637) | 1 | 57387 | 69692 | – | 1457 | 4164 |
| Arc1 (GeneID 36595) | 1 | 1.06e5 | 7.21e5 | 50576 | 3913 | 46538 |
| Awh (GeneID 38451) | 1 | 93697 | 61444 | – | 3308 | 3936 |
| CG4287 (GeneID 41939) | 1 | 1.37e5 | 63216 | – | 6000 | 2555 |
| Cpr76Ba (GeneID 40120) | 1 | 1.09e5 | 67888 | – | 4274 | 2428 |
| gom (GeneID 43934) | 1 | 97120 | 77104 | – | 2451 | 6664 |
| GstO3 (GeneID 38972) | 1 | 31975 | 59434 | – | 3424 | 4000 |
| CG10512 (GeneID 40339) | 1 | 69280 | 1.35e5 | – | 1904 | 3639 |
| CG7387 (GeneID 38915) | 1 | 1.06e5 | 56048 | – | 4003 | 2260 |
| Uxs (GeneID 38911) | 1 | 94629 | 49077 | – | 3404 | 1754 |
| chm (GeneID 43928) | 1 | 97376 | 87927 | – | 4199 | 3878 |
| CG14454 (GeneID 40482) | 1 | 90665 | 72192 | – | 2917 | 2150 |
| dx (GeneID 31589) | 1 | 71301 | 2.14e5 | – | 2395 | 7379 |
| CG8617 (GeneID 36594) | 1 | 73217 | 50293 | – | 1665 | 3989 |

Records listed so far whose target name starts with G or g (3):
| Target gene | reagent no. | firefly Hh reporter signal, replicate 1 | firefly Hh reporter signal, replicate 2 | firefly Hh reporter signal, replicate 3 | Renilla reference signal, replicate 1 | Renilla reference signal, replicate 2 |
| --- | --- | --- | --- | --- | --- | --- |
| Gprk2 (GeneID 49045) | 1 | 49668 | 27958 | – | 892 | 813 |
| gom (GeneID 43934) | 1 | 97120 | 77104 | – | 2451 | 6664 |
| GstO3 (GeneID 38972) | 1 | 31975 | 59434 | – | 3424 | 4000 |
